# Results from PubChem BioAssay AID504444 (National Center for Advancing Translational Sciences (NCATS), 2011).
# The whole screen tested about 360,000 compounds, of which about 7,500 (2.1%) were called active. Inconclusive means that the source gave no clear call. Such entries were picked first, then a sample of the others. The call rests on the fitted dose curve; in most records, active means well fitted inhibition curve with a large enough effect; inconclusive means small, poorly fitted or top-dose-only effect, or effect the other way; inactive means flat fitted curve, though single readings scatter. Potencies of inconclusive entries are doubtful fits and often do not repeat.
# Assay: Nrf2 qHTS screen for inhibitors; further: nearly all actives have a fitted effect of over 60% in size
# Details: A549 ARE-Fluc reporter, luciferase luminescence, 18-24 h; activity change, negative = inhibition: at 46 µM (top of the series)
# Summary of the method: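 Nrf2 activity is the BugLite luminescence, read 15 min after reagent at room temperature, following CellTiter-Fluor cytotoxicity readout (30 min, 37C). Compound titrations were applied for 18-24 h to 5000 A549 ARE_Fluc cells/well in 5% FBS OPTI-MEM.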
# On the % scale 0 is the no-effect control and ±100 the full control effect; potency means the concentration at half of the fitted maximal effect.
SMILES,Potency,"activity change, negative = inhibition"
Cc1cc(OCC(=O)c2cccc(C(F)(F)F)c2)n2cnnc2n1,"inconclusive: 4.11 µM [falling, single point]",–
O=C(/C=C/c1ccccc1)NCC(=O)N/N=C/c1ccccc1[N+](=O)[O-],–,inactive: -5.88%
COc1ccc(NC(=O)c2cc3c(s2)-c2c(C)cccc2OC3)cc1Cl,"inconclusive: 14.6 µM [falling, partial curve]",–
CCN(CC)CCNc1nc2c(c(=O)n(C)c(=O)n2C)n1C/C=C(/C)Cl,–,inactive: 11.1%
Cc1cc(C)c2nc(-c3ccccn3)cc(C(=O)Nn3cnnc3)c2c1,"inconclusive: 32.6 µM [activator, single point]",–
Clc1cccc(CSc2nnc(-c3cccnc3)n2Cc2ccco2)c1,"inconclusive: 20.6 µM [falling, single point]",–
CCCNC1=C(C)C(=O)CC1,–,inactive: 0.755%
Cc1ccccc1OCCSc1nc2ccc(NC(=O)c3cccc(F)c3)cc2s1,"inconclusive: 16.4 µM [falling, single point]",–
Cc1cc(Cl)c2oc(C(=O)N3CCN(c4cccc(C)n4)CC3)c(C)c2c1,"inconclusive: 9.2 µM [activator, partial curve]",–
COc1ccc(NC(=O)N2CCCC2C(=O)NCCc2ccccc2)cc1 (stereo unspecified),"inconclusive: 0.0326 µM [activator, full curve, poor fit]",–
Cc1cc(C(=O)CSc2nnc(-c3ccc(F)cc3)o2)c(C)n1CC1CCCO1 (stereo unspecified),"inconclusive: 20.6 µM [falling, single point]",–
CCCCc1nnc(NC(=O)C2CCCO2)s1 (stereo unspecified),"inconclusive: 18.4 µM [activator, single point]",–
N#Cc1cccc2c1-c1ccccc1/C2=N/NC(N)=S,"inconclusive: 20.6 µM [falling, single point]",–
Nn1c(Nc2ccccc2)nc2sc3c(c2c1=O)CCC3,active: 16.4 µM,–
Cc1cccc(CSc2nnc(CCCCCNC(=O)OC(C)(C)C)o2)c1,"inconclusive: 29.1 µM [falling, single point]",–
CC(C)=C1C2CCC1C1C(=O)N(c3nc(-c4ccc(C(C)C)cc4)c(C)s3)C(=O)C21 (stereo unspecified),"inconclusive: 16.4 µM [falling, single point]",–
CCOC(=O)c1c(CC(C)C)csc1N,"inconclusive: 25.9 µM [falling, single point]",–
Cc1ccc(NC(=O)CN2C(=O)c3cccnc3Oc3ccc(Cl)cc32)cc1,"inconclusive: 14.6 µM [falling, partial curve]",–
CCOc1ccc(Cc2onc3c2C(=O)CC(C)(C)C3)cc1OCC,"inconclusive: 8.2 µM [falling, partial curve]",–
COc1ccccc1C(CNC(=O)c1cc(C)nc2ccccc12)N(C)C (stereo unspecified),"inconclusive: 29.1 µM [activator, single point]",–
CCCn1c(C)cc(C(=O)COc2ccc(S(=O)(=O)N(CC)CC)cc2[N+](=O)[O-])c1C,"inconclusive: 20.6 µM [falling, single point]",–

# Two records picked at random from the list so far, as already listed:
SMILES,Potency,"activity change, negative = inhibition"
CCOC(=O)c1c(CC(C)C)csc1N,"inconclusive: 25.9 µM [falling, single point]",–
Cc1cc(Cl)c2oc(C(=O)N3CCN(c4cccc(C)n4)CC3)c(C)c2c1,"inconclusive: 9.2 µM [activator, partial curve]",–

# (cont.)

SMILES,Potency,"activity change, negative = inhibition"
Cc1ccc(S(=O)(=O)c2nnn3c2nc(NCc2ccc4c(c2)OCO4)c2sccc23)cc1C,"inconclusive: 5.8 µM [falling, full curve]",–
CCc1ccc(NC(=O)CN2C(=O)c3cccc4cccc2c34)cc1,–,inactive: 8.96%
COc1ccc(Br)cc1CNC(=O)c1cnc2sc(N3CCC(C)CC3)nn2c1=O,"inconclusive: 18.4 µM [activator, single point]",–
Cc1ccc2occ(/C=N/NC(=O)[C@@H](N)Cc3ccccc3)c(=O)c2c1,–,inactive: 3.73%
CCn1c(N2CCC(C)CC2)nc2c1c(=O)n(C)c(=O)n2C,"inconclusive: 11.6 µM [falling, partial curve]",–
O=C(CSc1nc2ccccc2c(=O)n1Cc1ccc(F)cc1)NCc1cccs1,"inconclusive: 20.6 µM [falling, partial curve, poor fit]",–
CN(C)c1ccc(N=Cc2nc(-c3ccccc3)oc2OC(=O)c2cccc(Cl)c2)cc1,"inconclusive: 4.11 µM [activator, partial curve]",–
CCOc1[nH]n(-c2ccc(Cl)cc2)c(=O)c1C=NCc1cccnc1,"inconclusive: 13 µM [falling, partial curve, poor fit]",–
Cc1ccc(S(=O)(=O)N2CCC(C(=O)OCC(=O)N(CC(C)C)C3CCS(=O)(=O)C3)CC2)cc1C (stereo unspecified),"inconclusive: 23.1 µM [activator, single point]",–
Cc1ccc(NC(=O)CSc2n[nH]c(-c3ccccn3)n2)cc1,"inconclusive: 13 µM [falling, partial curve]",–
CN(CC(=O)NC(=O)NCc1ccccc1)CC(=O)Nc1ccc(Cl)c(Cl)c1,"inconclusive: 29.1 µM [falling, single point]",–
COc1cc(Cl)c(NC(=O)c2cc3ccccn3n2)c(OC)c1,–,inactive: 14.6%
O=C(O)c1ccc(/C=N/N2CCN(c3ccccc3)CC2)cc1,"inconclusive: 4.11 µM [activator, partial curve]",–
Cc1cccc(NC(=O)C2CCCN2S(=O)(=O)c2ccc3nc(-c4ccccc4)[nH]c3c2)c1 (stereo unspecified),"inconclusive: 29.1 µM [falling, single point]",–
O=C(CSCc1ccccc1)Nc1cccc(F)c1,"inconclusive: 29.1 µM [activator, single point]",–
Cc1ccc2c(c1)c1c(c(=O)n(-c3ccccc3)c(=O)n1CC(=O)NCC1CCCO1)n2C (stereo unspecified),"inconclusive: 3.26 µM [activator, partial curve]",–
CC(=O)Nc1ccc(-c2ccc(NC(C)=O)c(O)c2)cc1O,"inconclusive: 11.6 µM [activator, single point]",–
CCOc1cc(C(=O)Nc2ccc(-c3cn4cccnc4n3)cc2)cc(OCC)c1OCC,"inconclusive: 29.1 µM [falling, single point]",–
Cn1c(SCc2nnc(-c3ccccc3Br)o2)nc2sc3c(c2c1=O)CCC3,"inconclusive: 29.1 µM [falling, single point]",–
COc1ccccc1OCCNC(=O)c1ccc(Br)cc1,"inconclusive: 4.61 µM [activator, full curve, poor fit]",–
